In ChEMBL document CHEMBL4325851, “Synthesis of aminopyrazole analogs and their evaluation as CDK inhibitors for cancer therapy” (Bioorg Med Chem Lett, 2018) one finds IC50 data, which are given here for 1 compound.

A short description of this test: Antiproliferative activity against human S2-013 cells after 72 hrs by prestoblue assay. It counts as functional, cell-based.

pIC50: −log10 of the molar value.

Usually pIC50 stands for the negative decadic logarithm of the IC50, by convention in mol/L. Low values mean a large IC50, high ones a small IC50. For `CC[C@H](CO)Nc1nc(NCc2ccccc2)c2ncn(C(C)C)c2n1` [SELICICLIB], the pIC50 is 4.66.
